## Binding screen against folded nucleic acids

From ROBIN, a set of small-molecule microarray screens (doi:10.1002/anie.202211358).

Targets (5′ to 3′):
SAM-II: SAM-II riboswitch RNA pseudoknot, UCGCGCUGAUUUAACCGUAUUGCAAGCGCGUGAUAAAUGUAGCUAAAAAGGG. Hit rate about 1% of about 21,000 compounds.
TPP: TPP riboswitch RNA three-way junction, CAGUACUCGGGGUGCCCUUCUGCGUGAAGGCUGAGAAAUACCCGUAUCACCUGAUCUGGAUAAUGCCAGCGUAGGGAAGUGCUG. Hit rate about 0.7% of about 24,000 compounds.
PreQ1: PreQ1 riboswitch RNA pseudoknot, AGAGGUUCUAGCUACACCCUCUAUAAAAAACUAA. From B. subtilis. Hit rate about 0.7% of about 24,000 compounds.

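The test is a small-molecule microarray: each compound is printed twice on a reactive slide, and binding shows as fluorescence of the labelled oligonucleotide after washing. For the PreQ1, TPP and SAM-II riboswitches the laboratory earlier reported (doi:10.1038/s41467-019-09493-3) 1 µM RNA, 2 h, and a rule that included a mean Z-score above 3 (spot signal-to-noise against the whole library), a score well above that on a control array, and duplicate spots agreeing (coefficient of variation under 100). The data file gives only the calls; its cut-offs may differ, and compounds hitting several targets are kept. A missing hit is not proof of no binding, and a hit is not a measured affinity.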 A compound is marked yes if it was called a hit and no if it was screened but was not. Compounds were drawn at random from those tested, without regard to their results. A target missing from an entry has no call listed here. A dash means that no call is listed here.

structure	SAM-II	TPP	PreQ1
c1ccc(NCCn2cc(C3CCCNC3)nn2)cc1 (configuration not stated)	no	no	no
CCN1CCc2nc3sc(C(=O)Nc4ccc(F)cc4)c(N)c3cc2C1	no	no	no
Cc1nc(C2=C(N)N(c3ccc(N(C)C)cc3)CC2=O)sc1C	-	no	no
O=C1CN(CC2(O)CNCCOC2)CCN1CCc1ccccc1 (configuration not stated)	no	no	no
c1ccc(-c2nnc(N3CCC(NCCCn4ccnn4)CC3)s2)cc1	no	no	no
Cc1nn(CC(=O)N[C@@H]2c3ccccc3C[C@@H]2O)c(=O)n1Cc1ccccc1	no	no	no
Cc1cc(C)c2c3c(sc2n1)C1(CCSCC1)C(C#N)=C(N)O3	no	no	no
c1cc2c(c(-c3cnccn3)c1)CCNC2	no	no	no
Nc1nc2c(ccc3ccccc32)s1	no	no	no
COC(=O)C1C(O)C(C)C(O)C(C)/C=C\C=C(/C)C(=O)Nc2c(C)c(OC(C)=O)c3c(c2O)C(=O)C(C)=C2OCOC(=C23)/C(C)=C/C(C)(O)C(O)C(C)C1O (configuration not stated)	no	no	no
Cc1ccc([C@H]2CN(C(=O)C(C)(C)NC(=O)c3cccs3)C[C@@H]2N)o1	no	no	no
Cn1c(=O)c2c(c3ccccc31)OC(N)=C(C#N)C2c1ccccc1F (configuration not stated)	no	no	no
Cc1ccc(N(CC(O)CN(C)C)S(=O)(=O)c2ccc(C)cc2)cc1 (configuration not stated)	no	no	no
CC(C)c1cc(NCc2ccco2)n2nc(-c3cccnc3)nc2n1	-	no	no
CCOc1ccc(NCc2nc3ccccc3n2C)cc1	no	no	no
CCCc1nc(CNC2CCN(CCC)CC2)cs1	no	no	no
N#Cc1c(N)sc2c1CCCCC2	no	no	no
O=C(/C=C\c1ccc2ccccc2n1)c1cc(Cl)ccc1O	no	no	no
CC1CN(C)C(C)CC1n1nc(O)cc1N (configuration not stated)	-	no	no
COc1ccc(-c2noc(-c3cccnc3NCc3ccc(Cl)cc3)n2)cc1	-	no	no
Cc1cc(OCC(O)CNC(=O)c2cc(C(C)C)nn2C)ccc1Cl (configuration not stated)	no	no	no
O=C(C1CC1)N1C[C@H]2CN(Cc3ccc(C#CCO)cc3)C[C@@]2(C(=O)O)C1	no	no	no
CCC(=O)c1c(NC(CC)CO)cc(C)oc1=O (configuration not stated)	no	no	no
COC(=O)CCC(=O)c1oc2ccc(Br)cc2c1N	no	no	no
CC(C)c1cc(NCC(O)c2cccs2)ncn1 (configuration not stated)	no	no	no
Cc1nc(C)c(C(=O)N/N=C/c2ccc(N(CCCl)CCCl)cc2)s1	no	no	no
O=C(NCC(F)F)c1ccc(S(=O)(=O)N[C@@H]2CNC[C@H]2O)cc1	no	no	no
CCOC(=O)N1CCC(N2C(=O)c3ccccc3C2Nc2ccc(F)c(Cl)c2)CC1 (configuration not stated)	no	no	no
CCCNC(=O)c1nn(-c2ccc(F)cc2)nc1CO	-	no	no
CCOC(=O)c1ccc2nc(C)cc(Nc3cccc(O)c3)c2c1	no	no	no
CCCC(C)(COC(N)=O)COC(=O)NC(C)C (configuration not stated)	no	no	no
Cc1nc2c(c(NCCc3csc(-c4cccnc4)n3)n1)CCNC2	no	no	no
O=C(CCc1cc2n(n1)CCCNC2)NCCCSC1CCCCC1	no	no	no
Nc1nnc(-c2ccc([N+](=O)[O-])cc2)s1	no	no	no
COc1ccccc1NC(=O)Nc1cc(C(C)C)ccc1C	no	no	no
CC1=NN(c2ccccc2)C(=O)C1/N=N/c1ccc(S(N)(=O)=O)cc1 (configuration not stated)	no	no	no
CCOc1ccc(N2CC(C(=O)NC3CC(C)(C)NC(C)(C)C3)CC2=O)cc1 (configuration not stated)	no	no	no
Cc1n[nH]c(NC2=CC(=O)CC(C)(C)C2)c1-c1ccc(Cl)cc1	no	no	no
CC(Cc1ccc(O)c(O)c1)(NN)C(=O)O (configuration not stated)	no	no	no
O=S(=O)(Oc1ccc(Cl)cc1)c1cccc2cccnc12	no	no	no
N#CCSc1nc(=O)cc(N)n1-c1ccc(F)cc1	no	no	no
CCN1CC2(CCN(C(=O)c3ccc4[nH]c(CO)nc4c3)CC2)CC1=O	no	no	no
CCCCc1c(C)nc(Nc2ccc(C(=O)O)cc2)nc1O	-	no	no
O=C1CC(Nc2ccc(N3CCOCC3)cc2)C(=O)N1c1cccc2ccccc12 (configuration not stated)	no	no	no
CCOc1ccc(C2C(C#N)=C(N)OC3=C2S(=O)(=O)N(Cc2cccc(C)c2)c2ccccc23)cc1 (configuration not stated)	-	no	no
COc1ccc(NC2=NS(=O)(=O)c3ccccc32)c(OC)c1	no	no	no
COCC1=C(C(=O)OC)C(c2ccncc2)C(C#N)=C(N)O1 (configuration not stated)	no	no	no
C=CCn1c(=N)n(CC(O)COc2cccc(C)c2)c2ccccc21 (configuration not stated)	no	no	no
Cc1ccc(-c2noc(-c3nnn(-c4ccc(F)c(Cl)c4)c3N)n2)cc1	-	no	no
c1cc(-c2cnn3cc(-c4ccc(OCCN5CCCCC5)cc4)cnc23)ccn1	no	no	no
CC(C)(O)CCc1ccc(C(=O)NCC(O)c2cccc(F)c2)cc1 (configuration not stated)	no	no	no
Nc1c(C(=O)Nc2ccccc2F)nnn1CC(=O)Nc1ccccc1	no	no	no

The last 6 entries again:

{"structure": "COCC1=C(C(=O)OC)C(c2ccncc2)C(C#N)=C(N)O1", "stereo": "configuration not stated", "SAM-II": "no", "TPP": "no", "PreQ1": "no"}
{"structure": "C=CCn1c(=N)n(CC(O)COc2cccc(C)c2)c2ccccc21", "stereo": "configuration not stated", "SAM-II": "no", "TPP": "no", "PreQ1": "no"}
{"structure": "Cc1ccc(-c2noc(-c3nnn(-c4ccc(F)c(Cl)c4)c3N)n2)cc1", "TPP": "no", "PreQ1": "no"}
{"structure": "c1cc(-c2cnn3cc(-c4ccc(OCCN5CCCCC5)cc4)cnc23)ccn1", "SAM-II": "no", "TPP": "no", "PreQ1": "no"}
{"structure": "CC(C)(O)CCc1ccc(C(=O)NCC(O)c2cccc(F)c2)cc1", "stereo": "configuration not stated", "SAM-II": "no", "TPP": "no", "PreQ1": "no"}
{"structure": "Nc1c(C(=O)Nc2ccccc2F)nnn1CC(=O)Nc1ccccc1", "SAM-II": "no", "TPP": "no", "PreQ1": "no"}